{"sequences": {"note": "Chains of the proteins cited; added tags and fusions are not shown.", "UniProt Q9C0K0": "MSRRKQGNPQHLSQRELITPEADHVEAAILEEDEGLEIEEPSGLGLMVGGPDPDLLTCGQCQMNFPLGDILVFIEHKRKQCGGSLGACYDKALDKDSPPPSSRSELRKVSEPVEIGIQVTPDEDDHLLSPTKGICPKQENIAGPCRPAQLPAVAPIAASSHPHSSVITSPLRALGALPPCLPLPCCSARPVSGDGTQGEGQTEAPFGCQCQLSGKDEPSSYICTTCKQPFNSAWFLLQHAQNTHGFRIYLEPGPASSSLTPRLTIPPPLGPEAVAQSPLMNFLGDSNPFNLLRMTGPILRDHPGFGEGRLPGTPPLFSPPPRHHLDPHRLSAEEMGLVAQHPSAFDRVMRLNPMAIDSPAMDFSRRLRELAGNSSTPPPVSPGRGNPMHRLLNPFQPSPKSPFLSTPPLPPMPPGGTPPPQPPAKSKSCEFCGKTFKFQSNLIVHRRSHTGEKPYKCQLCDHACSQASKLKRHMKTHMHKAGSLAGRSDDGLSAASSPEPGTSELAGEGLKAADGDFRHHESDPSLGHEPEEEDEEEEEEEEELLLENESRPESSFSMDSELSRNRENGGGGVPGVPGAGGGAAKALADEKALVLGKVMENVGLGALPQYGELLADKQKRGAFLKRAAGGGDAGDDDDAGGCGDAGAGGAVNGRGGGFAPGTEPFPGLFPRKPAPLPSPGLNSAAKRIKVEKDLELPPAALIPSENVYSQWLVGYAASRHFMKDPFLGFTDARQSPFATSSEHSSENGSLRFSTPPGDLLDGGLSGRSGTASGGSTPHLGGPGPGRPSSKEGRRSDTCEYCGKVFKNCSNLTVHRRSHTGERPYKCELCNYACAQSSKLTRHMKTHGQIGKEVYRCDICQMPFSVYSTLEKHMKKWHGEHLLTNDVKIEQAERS"}, "source": "paper doi:10.1101/2020.11.05.369959", "binders": {"B1": {"name": "Drosha (protein, UniProt Q9NRR4 1-1374)", "chain": "MMQGNTCHRMSFHPGRGCPRGRGGHGARPSAPSFRPQNLRLLHPQQPPVQYQYEPPSAPSTTFSNSPAPNFLPPRPDFVPFPPPMPPSAQGPLPPCPIRPPFPNHQMRHPFPVPPCFPPMPPPMPCPNNPPVPGAPPGQGTFPFMMPPPSMPHPPPPPVMPQQVNYQYPPGYSHHNFPPPSFNSFQNNPSSFLPSANNSSSPHFRHLPPYPLPKAPSERRSPERLKHYDDHRHRDHSHGRGERHRSLDRRERGRSPDRRRQDSRYRSDYDRGRTPSRHRSYERSRERERERHRHRDNRRSPSLERSYKKEYKRSGRSYGLSVVPEPAGCTPELPGEIIKNTDSWAPPLEIVNHRSPSREKKRARWEEEKDRWSDNQSSGKDKNYTSIKEKEPEETMPDKNEEEEEELLKPVWIRCTHSENYYSSDPMDQVGDSTVVGTSRLRDLYDKFEEELGSRQEKAKAARPPWEPPKTKLDEDLESSSESECESDEDSTCSSSSDSEVFDVIAEIKRKKAHPDRLHDELWYNDPGQMNDGPLCKCSAKARRTGIRHSIYPGEEAIKPCRPMTNNAGRLFHYRITVSPPTNFLTDRPTVIEYDDHEYIFEGFSMFAHAPLTNIPLCKVIRFNIDYTIHFIEEMMPENFCVKGLELFSLFLFRDILELYDWNLKGPLFEDSPPCCPRFHFMPRFVRFLPDGGKEVLSMHQILLYLLRCSKALVPEEEIANMLQWEELEWQKYAEECKGMIVTNPGTKPSSVRIDQLDREQFNPDVITFPIIVHFGIRPAQLSYAGDPQYQKLWKSYVKLRHLLANSPKVKQTDKQKLAQREEALQKIRQKNTMRREVTVELSSQGFWKTGIRSDVCQHAMMLPVLTHHIRYHQCLMHLDKLIGYTFQDRCLLQLAMTHPSHHLNFGMNPDHARNSLSNCGIRQPKYGDRKVHHMHMRKKGINTLINIMSRLGQDDPTPSRINHNERLEFLGDAVVEFLTSVHLYYLFPSLEEGGLATYRTAIVQNQHLAMLAKKLELDRFMLYAHGPDLCRESDLRHAMANCFEALIGAVYLEGSLEEAKQLFGRLLFNDPDLREVWLNYPLHPLQLQEPNTDRQLIETSPVLQKLTEFEEAIGVIFTHVRLLARAFTLRTVGFNHLTLGHNQRMEFLGDSIMQLVATEYLFIHFPDHHEGHLTLLRSSLVNNRTQAKVAEELGMQEYAITNDKTKRPVALRTKTLADLLESFIAALYIDKDLEYVHTFMNVCFFPRLKEFILNQDWNDPKSQLQQCCLTLRTEGKEPDIPLYKTLQTVGPSHARTYTVAVYFKGERIGCGKGPSIQQAEMGAAMDALEKYNFPQMAHQKRFIERKYRQELKEMRWEREHQEREPDETEDIKK"}, "B2": {"name": "UPF1 (protein, UniProt Q92900 1-1129)", "chain": "MSVEAYGPSSQTLTFLDTEEAELLGADTQGSEFEFTDFTLPSQTQTPPGGPGGPGGGGAGGPGGAGAGAAAGQLDAQVGPEGILQNGAVDDSVAKTSQLLAELNFEEDEEDTYYTKDLPIHACSYCGIHDPACVVYCNTSKKWFCNGRGNTSGSHIVNHLVRAKCKEVTLHKDGPLGETVLECYNCGCRNVFLLGFIPAKADSVVVLLCRQPCASQSSLKDINWDSSQWQPLIQDRCFLSWLVKIPSEQEQLRARQITAQQINKLEELWKENPSATLEDLEKPGVDEEPQHVLLRYEDAYQYQNIFGPLVKLEADYDKKLKESQTQDNITVRWDLGLNKKRIAYFTLPKTDSGNEDLVIIWLRDMRLMQGDEICLRYKGDLAPLWKGIGHVIKVPDNYGDEIAIELRSSVGAPVEVTHNFQVDFVWKSTSFDRMQSALKTFAVDETSVSGYIYHKLLGHEVEDVIIKCQLPKRFTAQGLPDLNHSQVYAVKTVLQRPLSLIQGPPGTGKTVTSATIVYHLARQGNGPVLVCAPSNIAVDQLTEKIHQTGLKVVRLCAKSREAIDSPVSFLALHNQIRNMDSMPELQKLQQLKDETGELSSADEKRYRALKRTAERELLMNADVICCTCVGAGDPRLAKMQFRSILIDESTQATEPECMVPVVLGAKQLILVGDHCQLGPVVMCKKAAKAGLSQSLFERLVVLGIRPIRLQVQYRMHPALSAFPSNIFYEGSLQNGVTAADRVKKGFDFQWPQPDKPMFFYVTQGQEEIASSGTSYLNRTEAANVEKITTKLLKAGAKPDQIGIITPYEGQRSYLVQYMQFSGSLHTKLYQEVEIASVDAFQGREKDFIILSCVRANEHQGIGFLNDPRRLNVALTRARYGVIIVGNPKALSKQPLWNHLLNYYKEQKVLVEGPLNNLRESLMQFSKPRKLVNTINPGARFMTTAMYDAREAIIPGSVYDRSSQGRPSSMYFQTHDQIGMISAGPSHVAAMNIPIPFNLVMPPMPPPGYFGQANGPAAGRGTPKGKTGRGGRQKNRFGLPGPSQTNLPNSQASQDVASQPFSQGALTQGYISMSQPSQMSQPGLSQPELSQDSYLGDEFKSQIDVALSQDSTYQGERAYQHGGVTGLSQY"}}, "molecular_target": "Flag-BCL11b (B-cell lymphoma/leukemia 11B) (UniProt Q9C0K0)", "test": "co-IP", "note": "No constants are given. Whether binding was seen depends on the method and setting. Binding seen in cells or lysates may run through a third protein. Some entries that bind do so weakly or less than the wild type."}
{"binder": "B1", "values": [{"measurement": "binding", "result": "binds"}]}
{"binder": "B2", "values": [{"measurement": "binding", "result": "binds"}]}
